In patent US12403105B2, “Diagnosis and treatment of vitiligo” (University of Massachusetts, priority 2017, dated 2025):
For at least one compound, name, drawing or mass did not settle the structure.

Columns and labels:
[1] = tested on: Vitiligo mice with >75% depigmentation and stable disease; test: FTY720 repigmentation study in mice with established vitiligo; assay type: in vivo, mouse; conditions: 1 mg/kg FTY720 i.p. three times weekly, 4 weeks
[2] = tested on: vitiligo patients; conditions: cited from earlier work

SMILES | PMEL Trm in the skin after treatment [1] | reversal of disease (repigmentation) [1] | time after starting treatment until elevated serum CXCL10 corrected ([2]; one patient) | efficacy in vitiligo patients ([2]; topical, case series (Rothstein et al., 2017))
CCCCCCCCc1ccc(CCC(N)(CO)CO)cc1 [FTY720, fingolimod] | still present in the skin after treatment | rapid reversal of disease | – | –
N#CC[C@H](C1CCCC1)n1cc(-c2ncnc3[nH]ccc23)cn1 [ruxolitinib] | – | – | 2-3 months | effective
